These are yes or no findings as the source states them, for the method shown. In cells and extracts the contact can be indirect.
Biological target: T1, hnRNP R (endogenous, HEK293T cells) (human (endogenous in HEK293T)) (UniProt O43390)
T1 sequence: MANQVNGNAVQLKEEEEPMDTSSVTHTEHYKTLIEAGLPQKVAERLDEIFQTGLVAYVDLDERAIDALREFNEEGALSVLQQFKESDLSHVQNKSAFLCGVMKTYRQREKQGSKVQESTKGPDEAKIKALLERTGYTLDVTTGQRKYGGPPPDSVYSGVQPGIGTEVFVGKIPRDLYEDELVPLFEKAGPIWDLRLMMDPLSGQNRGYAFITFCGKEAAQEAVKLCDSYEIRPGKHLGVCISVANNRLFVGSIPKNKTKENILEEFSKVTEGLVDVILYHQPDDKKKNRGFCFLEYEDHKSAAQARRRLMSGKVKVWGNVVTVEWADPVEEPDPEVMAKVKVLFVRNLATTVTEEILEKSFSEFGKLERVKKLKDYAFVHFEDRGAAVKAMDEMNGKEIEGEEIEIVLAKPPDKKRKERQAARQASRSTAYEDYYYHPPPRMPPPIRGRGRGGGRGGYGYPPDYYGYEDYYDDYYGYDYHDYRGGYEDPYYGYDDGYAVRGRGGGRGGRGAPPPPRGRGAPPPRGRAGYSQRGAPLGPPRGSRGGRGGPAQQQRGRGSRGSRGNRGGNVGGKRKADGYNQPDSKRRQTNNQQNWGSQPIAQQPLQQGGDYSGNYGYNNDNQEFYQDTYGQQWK
Experiment: co-IP; cytosolic and soluble nuclear fractions of HEK293T cells; IP of Smn or hnRNP R, Western blot

Chains of the proteins cited; added tags and fusions are not shown.
UniProt Q16637: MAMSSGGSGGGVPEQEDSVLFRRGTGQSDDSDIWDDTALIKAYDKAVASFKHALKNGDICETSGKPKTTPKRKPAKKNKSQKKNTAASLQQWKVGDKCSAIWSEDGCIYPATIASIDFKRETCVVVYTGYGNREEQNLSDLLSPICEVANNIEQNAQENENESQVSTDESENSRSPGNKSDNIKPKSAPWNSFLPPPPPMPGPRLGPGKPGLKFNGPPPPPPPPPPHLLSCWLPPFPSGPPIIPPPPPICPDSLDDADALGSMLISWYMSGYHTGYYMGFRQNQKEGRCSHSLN

binding: no binding
Substance: Smn (endogenous, HEK293T cells) (from UniProt Q16637 1-294)

From PMC4206449
